Data as given in PubChem BioAssay AID743121 (NCATS, 2013)

- Test: 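Genes whose silencing strengthens cell killing by camptothecin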 (primary screen)
- System: MDA-MB-231 cells, a human breast cancer line
- Reagents: single siRNA against human genes, 20 nM siRNA (0.8 pmol per well)
- Duration: 120 h (drug added 48 h after transfection, read 72 h later)
- Conditions: camptothecin 20 nM (about EC30) for 72 h; vehicle 0.1% DMSO in parallel plates
- Detection: 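CellTiter-Glo ATP signal, scaled to control siRNA as percent viability; sensitisation given as log2 of untreated divided by camptothecin-treated viability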
- Direction: log2 vehicle/camptothecin viability: higher = stronger sensitisation to camptothecin; viability with camptothecin and viability without drug: higher = more viable cells
- Active means: 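Each gene scored by redundant siRNA activity (RSA) over its individual siRNA ratios; a gene is called active at p < 0.001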
In all, the deposit lists about 26,000 reagents; below is a part drawn at random. Of all reagents, 167 (0.63%) are marked active. 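Calls are per gene from RSA p-values that are not deposited; an individual active-marked siRNA can sensitise only weakly.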 Reagents against one gene are numbered here.

gene,reagent,log2 vehicle/camptothecin viability,viability with camptothecin (% of control),viability without drug (% of control),activity call
ACAT2 (acetyl-CoA acetyltransferase 2),1,-0.316,68.9,55.4,inactive
ACAT2 (acetyl-CoA acetyltransferase 2),2,-0.15,85.6,77.2,inactive
ACAT2 (acetyl-CoA acetyltransferase 2),3,-0.064,37,35.4,inactive
ACAT2 (acetyl-CoA acetyltransferase 2),4,0.21,61.6,71.3,inactive
ADSL (adenylosuccinate lyase),1,-0.745,92.1,54.9,inactive
ADSL (adenylosuccinate lyase),2,0.525,22.8,32.8,inactive
ADSL (adenylosuccinate lyase),3,-0.717,99.4,60.5,inactive
ADM2 (adrenomedullin 2),1,-0.0285,89.6,87.9,inactive
ADM2 (adrenomedullin 2),2,-0.46,55.8,40.5,inactive
ADM2 (adrenomedullin 2),3,0.276,27.9,33.7,inactive
ADM2 (adrenomedullin 2),4,-0.348,34.8,27.3,inactive
ERAP1 (endoplasmic reticulum aminopeptidase 1),1,-0.312,52.4,42.2,inactive
ERAP1 (endoplasmic reticulum aminopeptidase 1),2,0.0121,61.6,62.2,inactive
ERAP1 (endoplasmic reticulum aminopeptidase 1),3,-0.0361,68.4,66.8,inactive
ERAP1 (endoplasmic reticulum aminopeptidase 1),4,1.16,26.9,60.3,inactive
CCL20 (C-C motif chemokine ligand 20),1,-0.115,71.2,65.7,inactive
CCL20 (C-C motif chemokine ligand 20),2,-0.178,93.1,82.3,inactive
CCL20 (C-C motif chemokine ligand 20),3,-0.133,101,92,inactive
CCL20 (C-C motif chemokine ligand 20),4,-0.237,73.2,62.1,inactive
PPP6C (protein phosphatase 6 catalytic subunit),1,-0.0474,107,104,inactive
PPP6C (protein phosphatase 6 catalytic subunit),2,0.0316,66,67.4,inactive
PPP6C (protein phosphatase 6 catalytic subunit),3,-0.171,59.7,53,inactive
PPP6C (protein phosphatase 6 catalytic subunit),4,-0.491,105,74.9,inactive
COG8 (component of oligomeric golgi complex 8),1,-0.258,74.1,62,inactive
COG8 (component of oligomeric golgi complex 8),2,-0.0575,73.6,70.7,inactive
COG8 (component of oligomeric golgi complex 8),3,0.0356,43.2,44.3,inactive
COG8 (component of oligomeric golgi complex 8),4,0.311,30.7,38.1,inactive
HOMER2 (homer scaffold protein 2),1,-0.156,101,90.5,inactive
HOMER2 (homer scaffold protein 2),2,-0.383,80,61.3,inactive
HOMER2 (homer scaffold protein 2),3,-0.0593,89.1,85.5,inactive
HOMER2 (homer scaffold protein 2),4,-0.609,100,65.8,inactive
GPR137B (G protein-coupled receptor 137B),1,-0.0536,115,110,inactive
GPR137B (G protein-coupled receptor 137B),2,-0.26,74.8,62.5,inactive
GPR137B (G protein-coupled receptor 137B),3,0.106,61.2,65.9,inactive
GPR137B (G protein-coupled receptor 137B),4,1.39,22,57.6,inactive
LRR1 (leucine rich repeat protein 1),1,-0.243,71.2,60.1,inactive
LRR1 (leucine rich repeat protein 1),2,-0.409,112,84.3,inactive
LRR1 (leucine rich repeat protein 1),3,0.249,69.4,82.6,inactive
LRR1 (leucine rich repeat protein 1),4,-0.495,105,74.3,inactive
DHRS7C (dehydrogenase/reductase 7C),1,-0.364,98.3,76.4,inactive
DHRS7C (dehydrogenase/reductase 7C),2,-0.339,73.7,58.3,inactive
DHRS7C (dehydrogenase/reductase 7C),3,-0.25,70.9,59.6,inactive
DHRS7C (dehydrogenase/reductase 7C),4,-0.344,57.9,45.7,inactive
MAPK10 (mitogen-activated protein kinase 10),1,-0.108,84.6,78.6,inactive
MAPK10 (mitogen-activated protein kinase 10),2,-0.568,85.9,57.9,inactive
MAPK10 (mitogen-activated protein kinase 10),3,-0.343,104,82.3,inactive
MAPK10 (mitogen-activated protein kinase 10),4,-0.155,98.6,88.5,inactive
TWF1 (twinfilin actin binding protein 1),1,-0.931,104,54.4,active
TWF1 (twinfilin actin binding protein 1),2,1.1,43.2,92.2,active
TWF1 (twinfilin actin binding protein 1),3,1.76,6.84,23.1,active
TWF1 (twinfilin actin binding protein 1),4,-0.0695,110,105,active
PDE6B (phosphodiesterase 6B),1,0.0486,60.8,62.9,inactive
PDE6B (phosphodiesterase 6B),2,-0.271,60,49.7,inactive
PDE6B (phosphodiesterase 6B),3,0.706,32.6,53.2,inactive
PDE6B (phosphodiesterase 6B),4,-0.107,83.9,77.9,inactive
TAF10 (TATA-box binding protein associated factor 10),1,0.178,52.7,59.6,inactive
TAF10 (TATA-box binding protein associated factor 10),2,-0.234,83.1,70.6,inactive
TAF10 (TATA-box binding protein associated factor 10),3,-0.453,101,73.9,inactive
"BMI1 (BMI1 proto-oncogene, polycomb ring finger)",1,-0.396,31.6,24,inactive
"BMI1 (BMI1 proto-oncogene, polycomb ring finger)",2,0.187,46.9,53.4,inactive
"BMI1 (BMI1 proto-oncogene, polycomb ring finger)",3,0.0105,91.7,92.4,inactive
CYP2S1 (cytochrome P450 family 2 subfamily S member 1),1,-0.334,22,17.4,inactive
CYP2S1 (cytochrome P450 family 2 subfamily S member 1),2,-0.274,81.7,67.5,inactive
CYP2S1 (cytochrome P450 family 2 subfamily S member 1),3,-0.155,79.8,71.7,inactive
CYP2S1 (cytochrome P450 family 2 subfamily S member 1),4,-0.405,69.4,52.4,inactive
CMKLR2 (chemerin chemokine-like receptor 2),1,0.307,83.9,104,inactive
CMKLR2 (chemerin chemokine-like receptor 2),2,-0.212,95.4,82.4,inactive
CMKLR2 (chemerin chemokine-like receptor 2),3,-0.271,65.6,54.4,inactive
CMKLR2 (chemerin chemokine-like receptor 2),4,-0.0923,88.6,83.1,inactive

Entries above whose gene name starts with B or b (3):
gene,reagent,log2 vehicle/camptothecin viability,viability with camptothecin (% of control),viability without drug (% of control),activity call
"BMI1 (BMI1 proto-oncogene, polycomb ring finger)",1,-0.396,31.6,24,inactive
"BMI1 (BMI1 proto-oncogene, polycomb ring finger)",2,0.187,46.9,53.4,inactive
"BMI1 (BMI1 proto-oncogene, polycomb ring finger)",3,0.0105,91.7,92.4,inactive
